The test can be described thus: qHTS Assay to Find Inhibitors of Chronic Active B-Cell Receptor Signaling. Conditions: ABC-DLBCL IkBa-CBG/CBR reporter, luminescence ratio (green luciferase fused to IkBa over red control in TMD8 lymphoma cells), 4 h. Put shortly:
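TMD8 human ABC-DLBCL cells with doxycycline-inducible IκBα–green luciferase fusion and unfused red luciferase, in 0.5% FBS medium; compounds up to 46 uM, 4 h at 37C. Green/red luminescence ratio, filter-overlap corrected, fitted to concentration-response curves.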
On the technique in general: Quantitative high-throughput screening tests each substance at several concentrations.

The mark [1] stands for this setting: measured here: CBR red luminescence, cell number.

The structures appear in SMILES notation. The list shows a part of the results. Further columns of the screen follow, without active or inactive calls. Most of these compounds were active or inconclusive in the main read-out, so they are no random draw. Words in brackets tell the shape of the fitted curve; partial curves, single points and poor fits give uncertain potencies.

As a reminder, the AC50 is the midpoint of the concentration-response curve, whichever way the signal moves. `CCOc1ccc(NC(=O)CN(C)C(=O)CN2C(=O)C3CCCCC3C2=O)cc1OCC` (centres undefined): under setting [1], the AC50 is 0.731 µM [rising, full curve]. For `O=C(COC(=O)CCNS(=O)(=O)c1cccs1)Nc1cc(C(F)(F)F)ccc1Cl`, under setting [1], the AC50 was 23.1 µM [rising, partial curve, poor fit].

In the case of `COc1ccc(C(=O)NC(C)c2nnc(SCC(=O)Nc3nc4ccccc4s3)n2C)cc1` (centres undefined), the AC50 under setting [1] was 15.8 µM [falling, single point].

On to `O=C(CSc1ccccc1)N1CCCC(N2CCN(c3ccccc3)CC2)C1` (centres undefined), for which, under setting [1], the AC50 is 35.5 µM [falling, single point].

`CCNC(=O)COC(=O)/C=C/c1ccccc1[N+](=O)[O-]`: the AC50 under setting [1] was 16.4 µM [falling, single point].

Take `COc1ccc(-n2nnnc2SCC(=O)N(C)C2CCS(=O)(=O)C2)cc1` (centres undefined): the AC50 under setting [1] is 1.03 µM [rising, full curve, poor fit]. The same measure, in the same setting: the result for `CC(=O)Nc1ccc(OCCC[n+]2ccccc2)cc1` reads 10 µM [rising, partial curve, poor fit]; that for `O=C(NNc1cc(Cl)ccc1Cl)C1CCC1`, 3.98 µM [rising, full curve, poor fit]; that for `O=C(O)c1ccc(Nc2nc(-c3cccnc3)cs2)cc1O`, 7.08 µM [falling, partial curve]. On to `O=C(NC1CCCC1)c1cc(-c2cccc(Cl)c2)on1`, for which the AC50 under setting [1] is 12.6 µM [falling, partial curve]. Consider `CC(=O)c1ccc(N2CCN(S(=O)(=O)c3cccc4nsnc34)CC2)cc1`, for which the AC50 under setting [1] is 35.5 µM [rising, single point]. On the same count and under the same terms, the value for `COc1ccc(OC)c(Cc2nnc(CCC(=O)NC3C4CC5CC(C4)CC3C5)o2)c1` (centres undefined) was 3.55 µM [falling, partial curve, poor fit]; that for `Nc1c(-c2ccccc2)n[nH]c1-c1ccccc1` was 4.61 µM [falling, full curve]; that for `CN1N=C(C(=O)N2CCc3c([nH]c4ccccc34)C2c2ccccc2Cl)CCC1=O` (centres undefined) was 0.178 µM [falling, full curve, poor fit]. As for `O=C(N/N=C/c1c[nH]c2ccccc12)c1ccccc1O`, the AC50 under setting [1] was 5.62 µM [falling, partial curve, poor fit]. The same measure, in the same setting: the result for `Cc1cccn2cc(CCNC(=O)c3cccs3)nc12` reads 12.6 µM [falling, partial curve]; that for `Cc1cc(C)c2c(N)c(C(=O)c3ccc(Cl)cc3)sc2n1`, 0.0651 µM [rising, full curve]; that for `O=C(c1cc(-c2cccc3ccccc23)nc2ccccc12)N1CCN(CCO)CC1`, 0.259 µM [rising, partial curve, poor fit].

Consider `CCCOC(=O)C1=C(C)N(C)C(=O)NC1c1cc2c(cc1Br)OCO2` (centres undefined), for which, under setting [1], the AC50 is 20 µM [falling, single point].

`N#CC1=C(SCC(=O)c2ccc(Cl)cc2)NC2=C(C(=O)CCC2)C1c1ccco1` (centres undefined): the AC50 under setting [1] was 22.4 µM [falling, single point].

Turning to `O=c1nccc(SCc2ccc(Cl)cc2Cl)[nH]1`, the AC50 under setting [1] is 5.62 µM [falling, single point]. The same measure, in the same setting: the result for `CCC1CCCCN1C(=O)CCc1nnc(Cc2cc(OC)ccc2OC)o1` (centres undefined) reads 7.08 µM [rising, full curve, poor fit]. On the same count and under the same terms, the result for `CCOC(=O)c1cccc(N/C=C/C(=O)c2ccc(OC)c(OC)c2)c1` reads 35.5 µM [falling, single point]; that for `CC(C)Sc1nc2ccccc2n1CC(=O)O`, 7.94 µM [rising, partial curve, poor fit]; that for `CC(=O)Nc1nc2c(C)cc(NC(=O)C3CCCCC3)cc2s1`, 3.98 µM [rising, full curve, poor fit]. The same measure, in the same setting: the value for `CSc1nc(C)cc(OCC(=O)n2nc(C)cc2C)n1` was 35.5 µM [rising, single point]. For the molecule `O=C(NNc1ccccn1)c1ccccc1CC[N+](=O)[O-]`, the AC50 under setting [1] was 14.1 µM [rising, partial curve, poor fit]. Still for that read-out and setting: the value for `Cc1c(C(=O)c2ccc(Cl)c([N+](=O)[O-])c2)c2ccccn2c1CCC#N` was 20.6 µM [falling, single point]; that for `CCC(C)NC(=O)c1cn(CC)c2cc(N3CCN(C(=O)c4ccco4)CC3)c(F)cc2c1=O` (centres undefined) was 7.08 µM [falling, partial curve, poor fit]; that for `COc1cc(C(CC(=O)N2CCN(c3ccccc3)CC2)c2c(OC)cc(OC)c3ccc(=O)oc23)cc(OC)c1OC` (centres undefined) was 0.398 µM [rising, partial curve, poor fit]. For the molecule `C=CCOC(=O)CCC(=O)Nc1cccc2ccccc12`, the AC50 under setting [1] is 35.5 µM [rising, single point].

In the case of `O=C(Nc1cccc(-c2cnc3ccccc3n2)c1)c1cccc(NC(=O)c2ccco2)c1`, the concentration at half-maximal activity (AC50) under setting [1] is 10.3 µM [falling, partial curve, poor fit]. In the case of `CC1(C)CCC(=O)N2CC[C@H]3C[C@H](OC(=O)Nc4ccccc4)C[C@@H]1[C@H]32`, under setting [1], the AC50 is 12.6 µM [falling, partial curve, poor fit]. Consider `CC(C)(C)c1nc2cc(Cl)c([N+](=O)[O-])cc2o1`, for which, under setting [1], the AC50 is 3.98 µM [rising, full curve, poor fit]. Take `CCCN(CCC)C(=O)CC(c1ccccc1)c1ccc(C)cc1O` (centres undefined): under setting [1], the AC50 was 23.1 µM [falling, single point].

For `CC(C)NC(=O)Nc1ccc2c(c1)C(=O)N([C@H](C)CO)C[C@H](C)[C@@H](CN(C)C(=O)Nc1ccc3c(c1)OCO3)O2`, the AC50 under setting [1] is 6.51 µM [rising, full curve, poor fit]. Still for that read-out and setting: the result for `COc1ccc(-c2nc3sc(CCNC(=O)c4cc(OC)c(OC)c(OC)c4)c(C)n3n2)cc1` reads 6.31 µM [rising, single point]; that for `CNc1nc(SCc2ccc(C)cc2)nc2c1CCCC2`, 20 µM [falling, partial curve, poor fit]. On to `Cn1c(=O)c2c(nc(NCc3ccc4c(c3)OCO4)n2Cc2ccccc2F)n(C)c1=O`, for which the AC50 under setting [1] is 3.98 µM [falling, single point]. As for `O=C(Nc1ccncc1)c1ccc(Cl)c(S(=O)(=O)N2CCCC2)c1`, the AC50 under setting [1] was 16.4 µM [falling, partial curve, poor fit]. `CC(C)(C)C(=O)Nc1ccc(N2CCN(c3ccc(C(F)(F)F)cn3)CC2)nc1`: the AC50 under setting [1] was 35.5 µM [rising, single point]. The same measure, in the same setting: the result for `Cc1cc(Cl)ccc1NC(=S)NC1CCCC1` reads 0.447 µM [rising, partial curve, poor fit]; that for `Cc1cc(NC(=O)CSc2nnc(-c3cccs3)n2N)no1`, 1.78 µM [falling, partial curve]; that for `Cc1cc2oc(=O)cc(CN(C)Cc3ccccc3F)c2cc1Cl`, 5.62 µM [rising, full curve, poor fit]. The same measure, in the same setting: the result for `CCN1CC(CN(C)Cc2cn(-c3ccc(C)cc3)nc2-c2cccc(C)c2)CC1=O` (centres undefined) reads 22.4 µM [falling, single point]; that for `COc1ccc(NC(=O)COc2ccccc2)cc1Cl`, 20 µM [rising, partial curve, poor fit]; that for `Cc1ccc(N(CC(=O)NCC2CCCO2)S(C)(=O)=O)cc1Cl` (centres undefined), 14.6 µM [rising, single point].

`COc1ccc(N2CC(C)Cn3c2nc2c3c(=O)n(Cc3ccccc3)c(=O)n2C)c(OC)c1` (centres undefined): the AC50 under setting [1] was 14.1 µM [falling, single point]. Same read-out and setting: the result for `C/C(=N\Nc1nnc2c3ccccc3n(C)c2n1)c1ccc(C)o1` reads 18.4 µM [falling, partial curve, poor fit]. On the same count and under the same terms, the value for `O=C(c1ccccc1)c1cnc(-c2ccc(Cl)cc2)s1` was 0.891 µM [falling, full curve, poor fit]; that for `CCn1c(=O)cc(OCC(=O)NCCC(C)C)c2ccccc21` was 16.4 µM [rising, partial curve, poor fit]. On to `CCCCN(CCCC)S(=O)(=O)c1ccc(NC(=O)c2cccs2)cc1`, for which the AC50 (measured here: IkBa-CBG green luminescence) was 16.4 µM [rising, partial curve, poor fit]. For `O=C(O)c1cc(-c2cccc(Cl)c2)nc2nc(N3CCCCC3)sc12`, the AC50 under setting [1] is 13 µM [rising, partial curve].

As to `Cc1c(N=C(N)/N=C(\N)Nc2ccc(Br)cc2)c(=O)n(-c2ccccc2)n1C`, under setting [1], the AC50 is 18.4 µM [falling, partial curve, poor fit]. Still for that read-out and setting: the value for `COc1ccc(-n2c(SCC(=O)Nc3ccc(Cl)c(C)c3)nc3n[nH]c(C)c3c2=N)cc1` was 12.6 µM [falling, single point]; that for `CCCCc1nc2cc(C(=O)NC3CCOC(C)(C)C3)ccc2o1` (centres undefined) was 15.8 µM [rising, partial curve, poor fit]; that for `O=C(COc1ccc(Cl)cc1Cl)NCc1ccncc1` was 6.31 µM [rising, full curve].

In the case of `CCOC(=O)c1c(NC(=O)c2ccc(S(=O)(=O)N3CCC(C)CC3)cc2)sc2c1CCN(C)C2`, the AC50 under setting [1] was 10 µM [rising, partial curve, poor fit].

Turning to `N#Cc1ccc(C(=O)Nc2nc(SCc3ccc(Cl)cc3)n[nH]2)cc1`, the AC50 under setting [1] is 35.5 µM [falling, partial curve, poor fit]. As for `Cc1ccc(N2CC(C(=O)Nc3nc4ccc(S(C)(=O)=O)cc4s3)CC2=O)cc1C` (centres undefined), under setting [1], the AC50 is 35.5 µM [falling, single point]. Still for that read-out and setting: the value for `CCC(=O)NCCc1nc2cc(NC(=O)c3ccccc3Cl)ccc2n1C` was 10 µM [falling, partial curve]; that for `C/C(=N\NC(=O)c1ccc(Cl)cc1)c1cccs1` was 35.5 µM [falling, single point]. The same measure, in the same setting: the result for `O=C(Nc1nc2ccccc2[nH]1)c1ccc(Cl)cc1` reads 0.794 µM [falling, full curve]; that for `CCc1ccc2oc(C(=O)N3CCN(C)CC3)cc(=O)c2c1`, 17.8 µM [falling, single point].

These data come from PubChem BioAssay AID493014 (National Center for Advancing Translational Sciences (NCATS), 2011).
